Article PMC13038412, “Hetero-oligomerization drives structural plasticity of eukaryotic peroxiredoxins” (Nature Chemical Biology, 2026)
No constants are given. Whether binding was seen depends on the method and setting. Binding calls can cover weak binding; strength is not graded here. Where a sequence is shown, tags or fusion partners need not be part of it. For some assays here: Binding seen in cells or lysates may run through a third protein.

Protein sequences, listed by entry. Tags and fused reporters are not part of them. Lines headed by an entry give the natural chain unless they say otherwise; changes in a name come on top.
UniProt P34760: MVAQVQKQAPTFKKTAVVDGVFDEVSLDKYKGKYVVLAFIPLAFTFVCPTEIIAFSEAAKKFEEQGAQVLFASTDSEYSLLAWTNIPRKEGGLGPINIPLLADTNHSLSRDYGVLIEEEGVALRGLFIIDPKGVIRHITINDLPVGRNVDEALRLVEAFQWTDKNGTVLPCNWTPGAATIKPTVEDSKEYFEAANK

Tests used:
[1] = target: T1, roGFP2-AtBAS1A (A. thaliana) (UniProt Q96291); assay: native gel or EMSA; clear native PAGE of lysates from Δtsa1Δtsa2 yeast coexpressing a roGFP2-peroxiredoxin fusion with an empty vector or an unfused peroxiredoxin; imaged for GFP fluorescence
T1 sequence: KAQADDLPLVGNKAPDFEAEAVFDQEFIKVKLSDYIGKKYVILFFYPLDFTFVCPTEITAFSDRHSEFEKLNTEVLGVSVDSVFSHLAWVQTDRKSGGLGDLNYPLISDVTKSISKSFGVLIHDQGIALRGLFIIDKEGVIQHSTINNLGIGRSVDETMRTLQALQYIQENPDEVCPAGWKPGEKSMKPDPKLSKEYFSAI

His6-Tsa2 = target: T2, His6-Tsa2 (S. cerevisiae, UniProt Q04120 1-196); assay: pull-down + other: nonreducing SDS-PAGE of disulfide-linked dimers; coexpressed in E. coli, tandem-affinity copurification; samples treated with 10 mM NEM, nonreducing SDS-PAGE, western blot
T2 construct: Tsa2, Prx1/AhpC-type peroxiredoxin of Saccharomyces cerevisiae; TSA2 from pET15b/His6-TSA2; calculated mass of His6-Tsa2 23.8 kDa; also called His6-tagged Tsa2; His-Tsa2; source: E. coli SHuffle T7 Express, purified (Ni-NTA) from pET15b; or coexpressed with Strep-Tsa1 / Strep-Tsa1ΔCR from pCOLADuet and tandem purified (Ni-NTA, StrepTactin); not shown: His6, N-terminal, kept
T2 sequence (looked up): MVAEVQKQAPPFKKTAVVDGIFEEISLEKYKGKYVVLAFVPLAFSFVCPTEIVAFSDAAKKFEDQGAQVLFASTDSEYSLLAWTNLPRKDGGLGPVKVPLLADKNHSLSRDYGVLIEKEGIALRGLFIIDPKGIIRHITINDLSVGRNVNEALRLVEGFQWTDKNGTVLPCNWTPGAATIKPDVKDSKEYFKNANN

| Substance | binding [1] | binding (His6-Tsa2) |
| --- | --- | --- |
| AtBAS1B (A. thaliana) (enzyme) | binds |  |
| Strep-Tsa1ΔCR (from UniProt P34760) (enzyme) |  | binds |
